Series [1] concerns Staphylococcus aureus efflux mutants and clinical strains.
Series [2] concerns Bacillus subtilis BmrA efflux mutants.

Molecules are shown by their SMILES. Read-outs that look alike come from different tables or passages of the source.

With `CCCCNc1ccc2nc3cc(NCCOC)c(N)cc3[n+](CCC)c2c1` [5a4], the “cell pellet colour after 5a4 protocol” value is on record as “stained light pink” in series [1] (S. aureus ATCC 25923 (basal norA efflux)); “stained light pink” in series [1] (SA‐1199 (basal norA efflux)); “remained unstained” in series [1] (SA‐1199B (norA overexpressing)); “pale yellow (default color)” in series [1] (SA‐K1748 (mepA overexpressing)); “vivid pink stain” in series [1] (SA‐K1758 (no functional NorA)); “pale yellow (default color)” in series [1] (SA‐K2068 (mepA overexpressing)). Also, the “cell pellet colour after 5a4 protocol” value in series [2] (bmrA overexpressed strain) was “white”; in series [2] (ΔbmrA mutant) it was “intense pink color”.

Source of the values: PMC12023841, “Unlocking the Gates: A Novel Diagnostic Molecule for Quantifying Efflux Levels in Gram‐Positive Bacteria” (Advanced Healthcare Materials, 2025).
